Source: PubChem BioAssay AID1259254 (NCATS, 2017)

- Test: 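Finding genes that stop cells copying their DNA twice in one cycle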 (primary screen)
- System: human HCT116 colorectal cancer cells
- Reagents: single siRNA against human genes
- Timing: 3 days
- Measurement: 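Imaged Hoechst DNA stain sorts each cell into a cycle phase by DNA amount; per plate, G2 fraction set to 0% for non-targeting and 100% for GMNN siRNA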
- Scale: G2 robust z-score: higher = more G2 cells, more excess DNA replication
- Hit rule: 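Active siRNAs have a G2 robust z of 5 or more median absolute deviations over the median, which in these data means about 38% or higher of GMNN control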
The deposit covers about 59,000 reagents; shown is an unselected part. Of all reagents, about 1,550 (2.6%) are marked active. 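G2 share is only a proxy for re-replication; each gene was hit by three separate siRNAs, and active genes were retested.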 Entries without a mark were called inactive. Reagents against one gene are numbered here. Further read-outs or replicates are left out here. The record does not give: the amount of reagent.

Silencing of USP8 #1 resulted in: G2 robust z-score -0.586. Knock-down of USP8 #2 came out at: G2 robust z-score -0.926. With knock-down of USP8 #3, the record shows G2 robust z-score 0.447. For TRPC6 #1 the deposit lists G2 robust z-score -0.555. Knock-down of TRPC6 #2 resulted in: G2 robust z-score 0.0796. Knock-down of TRPC6 #3 came out at: G2 robust z-score 0.998.

For CDH3 #1, the entry reads G2 robust z-score -0.829. After knock-down of CDH3 #2, the screen gave G2 robust z-score 1.35. Knock-down of CDH3 #3 resulted in: G2 robust z-score 0.0113. For MTARC1 #1 the deposit lists G2 robust z-score 0.283. MTARC1 #2 scored G2 robust z-score -0.405. MTARC1 #3 scored G2 robust z-score 0.355.

Targets above whose target name starts with U or u (3):
USP8 #1 | G2 robust z-score = -0.586
USP8 #2 | G2 robust z-score = -0.926
USP8 #3 | G2 robust z-score = 0.447
